Reference: article PMC7819943, “Rice protein-binding microarrays: a tool to detect cis-acting elements near promoter regions in rice”
The other results are listed elsewhere or left out.

molecular target: T1, OsSMF1 (Oryza sativa, UniProt Q6ZLB0 1-436); experiment: protein-binding microarray (RPBM); PBS, 2% BSA, 51.3 ng/ul salmon testes DNA, 50 uM zinc acetate, 200 nM TF, 25 C, 1 h; high values mean tight binding; conditions: protein: recombinant; tags: N-terminal polyhistidine and DsRed monomer fusion (pET32a); chain copies: 2; label: CyDye5-dUTP incorporated in the synthesized complementary strand; 3' TTTTT single-stranded linker to array surface; dsDNA, one strand shown
T1 sequence: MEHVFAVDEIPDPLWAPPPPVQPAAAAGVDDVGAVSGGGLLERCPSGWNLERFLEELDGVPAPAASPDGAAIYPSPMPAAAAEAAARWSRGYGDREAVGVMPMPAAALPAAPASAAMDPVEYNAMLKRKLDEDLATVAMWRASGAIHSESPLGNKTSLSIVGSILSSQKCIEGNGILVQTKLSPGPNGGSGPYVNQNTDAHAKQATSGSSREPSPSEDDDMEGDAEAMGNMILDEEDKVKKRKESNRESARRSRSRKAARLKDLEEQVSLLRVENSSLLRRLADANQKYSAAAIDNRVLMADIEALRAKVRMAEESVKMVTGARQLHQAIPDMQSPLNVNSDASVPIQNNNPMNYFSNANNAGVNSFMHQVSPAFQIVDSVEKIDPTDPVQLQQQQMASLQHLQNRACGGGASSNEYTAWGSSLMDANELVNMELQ
How it was run: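 Transcription factors were each fused at the N-terminus to a polyhistidine tag plus DsRed and expressed in E. coli BL21-CodonPlus before Ni–NTA purification. Binding to a double-stranded custom Agilent array was carried out with 200 nM protein at 25 °C for 1 h in PBS, 2% BSA, salmon testes DNA and 50 µM zinc acetate. The binding signal is per-feature fluorescence intensity, in arbitrary units, on an Axon 4000B scanner.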

First: ATATAACCCGCTGCTCTTCTCTCTCATCTTTTATCTTATTCGGAGTCACCTAGTGCAG
Second: TTTGAGGGACCGAAAGAGAACTTATTCCCCGTGTAGCGCGCGGAGTCACCTAGTGCAG
The binding signal of the first is higher: 21400 fluorescence intensity (a.u.) for the first, 3290 fluorescence intensity (a.u.) for the second.

Going from “AGAACCGAAGGCGGTGGGCCCCACCCCGTCAGCCTCTCTCCGGAGTCACCTAGTGCAG” to “GCCAAACTTCTTCCTTTACCAACTTCATGACGTGCCATATCGGAGTCACCTAGTGCAG”, the binding signal rises from 3560 fluorescence intensity (a.u.) to 11000 fluorescence intensity (a.u.).

First: TTGTTATTACACATTGATGAGACATCAAACTATGCTGACTCGGAGTCACCTAGTGCAG
Second: ATGGCGTGTCAGATTTGCTAGCGTGATGTGCATTGATTACCGGAGTCACCTAGTGCAG
The binding signal of the first is higher: 5220 fluorescence intensity (a.u.) for the first, 3480 fluorescence intensity (a.u.) for the second.

Going from “GACGACGGCGTGACGATGCAGATGTTCGAGGAGTGGATGGCGGAGTCACCTAGTGCAG” to “CAACTTCTAAAGCTAAATTTAGGAGTAGGAGTTTTACCAACGGAGTCACCTAGTGCAG”, the binding signal rises from 3350 fluorescence intensity (a.u.) to 4490 fluorescence intensity (a.u.).

Compared with “AGTTATCCTGTTCCCACGTAATGCTGTTATGTAGATTTTCCGGAGTCACCTAGTGCAG”, “CCATACAATGCCGCTGTACTTCATTAAGCCTCGTGAAAACCGGAGTCACCTAGTGCAG” is lower in binding signal: 5590 fluorescence intensity (a.u.) for the first, 3530 fluorescence intensity (a.u.) for the second.

First: GCAACCTACCTAAACAATGTTATGTATGTGGCTCCAGCAGCGGAGTCACCTAGTGCAG
Second: TGCGGAATAAAATAAATATATGATGCATCATGATTATAGCCGGAGTCACCTAGTGCAG
The binding signal of the first is lower: 3180 fluorescence intensity (a.u.) for the first, 3730 fluorescence intensity (a.u.) for the second.

Compared with “CTTGTCAGCGTACGGACCCTGACGTTAACAAACGATCGCGCGGAGTCACCTAGTGCAG”, “CGACATCATCAAGAGTAAGCCACGTACCGCCACTCTCTCGCGGAGTCACCTAGTGCAG” is lower in binding signal: 3560 fluorescence intensity (a.u.) for the first, 3340 fluorescence intensity (a.u.) for the second.

First: GTAGAACTAGACGACCTCCGTAGTATAGCACGAATCTCAACGGAGTCACCTAGTGCAG
Second: TGGCTCGCAAAATGCCACATAATTGGCTCTGGAAACCGAGCGGAGTCACCTAGTGCAG
The binding signal of the first is higher: 4150 fluorescence intensity (a.u.) for the first, 3450 fluorescence intensity (a.u.) for the second.

Compared with “CTTCCCCGGCAGCGCTCCCGCCGCCACGTTGCCACTGTTGCGGAGTCACCTAGTGCAG”, “CCGACGAGTGGTGTTTTCTGGTCACCTGCGGCAGCCGTCGCGGAGTCACCTAGTGCAG” is lower in binding signal: 9560 fluorescence intensity (a.u.) for the first, 3380 fluorescence intensity (a.u.) for the second.

First: TGGGGCCCACGCTGACTCACCCGCCACGTCAGACAAAACCCGGAGTCACCTAGTGCAG
Second: AACTTGTCTTCTGCTTATGTCAGCATTATAGGCCTATAGGCGGAGTCACCTAGTGCAG
The binding signal of the first is higher: 20900 fluorescence intensity (a.u.) for the first, 12200 fluorescence intensity (a.u.) for the second.

First: AGTCCACTCTTCACAGCAGGGCGAGAAGAGAAGTAGGAGTCGGAGTCACCTAGTGCAG
Second: CTGAATCCCGCCCGGTGTTTGAGTGCCTTCGCCTATGCTGCGGAGTCACCTAGTGCAG
The binding signal of the first is lower: 3160 fluorescence intensity (a.u.) for the first, 3230 fluorescence intensity (a.u.) for the second.

Going from “CGCCGAGGAAGCGGCGGCGAACAACGCTCGGACCGCGTCACGGAGTCACCTAGTGCAG” to “AGAGATGGTAGTGGTAAAGCGGAGGAGGGGTGGGGTGTTGCGGAGTCACCTAGTGCAG”, the binding signal rises from 3620 fluorescence intensity (a.u.) to 3760 fluorescence intensity (a.u.).

Compared with “TTGCTGTTCTTCCAATCCACTCCTCTTGTTTGTGGCAAAGCGGAGTCACCTAGTGCAG”, “CAATATATGCGTTACCGAGCAGCCACGTCTCATGAACACACGGAGTCACCTAGTGCAG” is lower in binding signal: 21100 fluorescence intensity (a.u.) for the first, 3760 fluorescence intensity (a.u.) for the second.

Compared with “CTGAGAATAGGACGATGACCCGTCGCTCTGGGAACTAGCCCGGAGTCACCTAGTGCAG”, “GCTCTGCATGAGTTTCGCGCACACGCACGCATCGATCGGCCGGAGTCACCTAGTGCAG” is higher in binding signal: 3300 fluorescence intensity (a.u.) for the first, 3630 fluorescence intensity (a.u.) for the second.

First: CGTGCAGCCGTTGACATGTGGTCCATGCTATTCGCAAATGCGGAGTCACCTAGTGCAG
Second: CCGAGCGCTGGCCGCTGACGCGTCCCCGCGTCCCGACCGTCGGAGTCACCTAGTGCAG
The binding signal of the first is lower: 3270 fluorescence intensity (a.u.) for the first, 9400 fluorescence intensity (a.u.) for the second.

First: TGTCCTCGAACACGGGGCGCTCACTCTCTCTCTCTCTCTCCGGAGTCACCTAGTGCAG
Second: GGCGGAGGGAGTGCTCGACGCGTGGAGCTGACGTGCCAACCGGAGTCACCTAGTGCAG
The binding signal of the first is lower: 3500 fluorescence intensity (a.u.) for the first, 15800 fluorescence intensity (a.u.) for the second.

Going from “ACATCCGCGTGCGCGTGGGTATGCCATGTCGATATGTAACCGGAGTCACCTAGTGCAG” to “CCGACCGAGACAGTGCTGCCTCGTCGGCTTCCTCTCGCCGCGGAGTCACCTAGTGCAG”, the binding signal falls from 3720 fluorescence intensity (a.u.) to 3410 fluorescence intensity (a.u.).

First: TACATTATATTCAATTCTAACTTTCGGAAATATTATATAGCGGAGTCACCTAGTGCAG
Second: CCTGCCACCGTGCCACCGCCTCTCCGTCCCCATCACCCTCCGGAGTCACCTAGTGCAG
The binding signal of the first is higher: 26900 fluorescence intensity (a.u.) for the first, 3230 fluorescence intensity (a.u.) for the second.

Going from “TGTATTTGTCGGCTTGCATCGTCACGGTCTCTGTCACCTCCGGAGTCACCTAGTGCAG” to “GAATGAAAACTCAGGGGTAAGTAGGAGATGACGCAAAGTTCGGAGTCACCTAGTGCAG”, the binding signal falls from 10500 fluorescence intensity (a.u.) to 3580 fluorescence intensity (a.u.).

Compared with “CGGTGGCGGCGGCGGCAGCATCCTGAGCGACGCGCTGGTGCGGAGTCACCTAGTGCAG”, “CACGAGGGACGCCCAATCCTCCGTGTCCGTTGGCTCAACTCGGAGTCACCTAGTGCAG” is lower in binding signal: 30100 fluorescence intensity (a.u.) for the first, 3780 fluorescence intensity (a.u.) for the second.

Compared with “ACATCCGCGTTGTGATTTGGGTTGAGCGCACTACTCCACGCGGAGTCACCTAGTGCAG”, “AGACCTAGATGGGCATCGATTTCAAGTCAATGTCGTCCCACGGAGTCACCTAGTGCAG” is higher in binding signal: 3360 fluorescence intensity (a.u.) for the first, 5720 fluorescence intensity (a.u.) for the second.

Going from “TTCCATGACACGGCATGGATCGAGCTTTCTACAGTAGCTACGGAGTCACCTAGTGCAG” to “CAGACGGCGGTGCGCGGTCGACCCGCCGTCTGCCACGTCACGGAGTCACCTAGTGCAG”, the binding signal rises from 3730 fluorescence intensity (a.u.) to 36300 fluorescence intensity (a.u.).

First: GTGACACAACAAGTCGGATCAGCAACCGCCTCCCTCACCCCGGAGTCACCTAGTGCAG
Second: CGCACTCAGGTTCCATGATACCTCCACGTGGCCGCGGAGTCGGAGTCACCTAGTGCAG
The binding signal of the first is lower: 11200 fluorescence intensity (a.u.) for the first, 15500 fluorescence intensity (a.u.) for the second.

Compared with “GTTCGGGGCGTGACAATATGTTAGGGTGTGACAGTTAGTTCGGAGTCACCTAGTGCAG”, “TGCTACTGCGCTATCATGACTGTACTGAAGCCCGGCAGCCCGGAGTCACCTAGTGCAG” is higher in binding signal: 3300 fluorescence intensity (a.u.) for the first, 5820 fluorescence intensity (a.u.) for the second.

Going from “AGTGTCAGTACACACACTAGCTTCTCTCACCGGCTCTCCGCGGAGTCACCTAGTGCAG” to “CAGCACACGGAGCTCCACACCACTCTAGCCAAACTATCAACGGAGTCACCTAGTGCAG”, the binding signal rises from 3210 fluorescence intensity (a.u.) to 26100 fluorescence intensity (a.u.).

Compared with “GCCACGCTATTTAGCGCTGAGGTGTCTAAGTTCAGCACCACGGAGTCACCTAGTGCAG”, “CACCAGCACATAAACACAAACCCACAGAAGACATTGCATTCGGAGTCACCTAGTGCAG” is higher in binding signal: 3800 fluorescence intensity (a.u.) for the first, 5420 fluorescence intensity (a.u.) for the second.

Compared with “GTTCGTTGTTGCCACGTGCCACGGCCCGGCCCGGCCCATGCGGAGTCACCTAGTGCAG”, “AATTGTTTATTACGACTGTTGTGACTGTGCTTTACACCCCCGGAGTCACCTAGTGCAG” is lower in binding signal: 11000 fluorescence intensity (a.u.) for the first, 4580 fluorescence intensity (a.u.) for the second.
